Reference: PMC9684461, “RNA-controlled nucleocytoplasmic shuttling of mRNA decay factors regulates mRNA synthesis and a novel mRNA decay pathway” (Nature Communications, 2021)
Results are given in words; binding and its absence hold for the method and conditions named. In cells and extracts the contact can be indirect. Some entries that bind do so weakly or less than the wild type. Tags and fused reporters may be left off the sequences shown.

Amino acid sequences for entries named in this document (tags omitted).
UniProt P22147: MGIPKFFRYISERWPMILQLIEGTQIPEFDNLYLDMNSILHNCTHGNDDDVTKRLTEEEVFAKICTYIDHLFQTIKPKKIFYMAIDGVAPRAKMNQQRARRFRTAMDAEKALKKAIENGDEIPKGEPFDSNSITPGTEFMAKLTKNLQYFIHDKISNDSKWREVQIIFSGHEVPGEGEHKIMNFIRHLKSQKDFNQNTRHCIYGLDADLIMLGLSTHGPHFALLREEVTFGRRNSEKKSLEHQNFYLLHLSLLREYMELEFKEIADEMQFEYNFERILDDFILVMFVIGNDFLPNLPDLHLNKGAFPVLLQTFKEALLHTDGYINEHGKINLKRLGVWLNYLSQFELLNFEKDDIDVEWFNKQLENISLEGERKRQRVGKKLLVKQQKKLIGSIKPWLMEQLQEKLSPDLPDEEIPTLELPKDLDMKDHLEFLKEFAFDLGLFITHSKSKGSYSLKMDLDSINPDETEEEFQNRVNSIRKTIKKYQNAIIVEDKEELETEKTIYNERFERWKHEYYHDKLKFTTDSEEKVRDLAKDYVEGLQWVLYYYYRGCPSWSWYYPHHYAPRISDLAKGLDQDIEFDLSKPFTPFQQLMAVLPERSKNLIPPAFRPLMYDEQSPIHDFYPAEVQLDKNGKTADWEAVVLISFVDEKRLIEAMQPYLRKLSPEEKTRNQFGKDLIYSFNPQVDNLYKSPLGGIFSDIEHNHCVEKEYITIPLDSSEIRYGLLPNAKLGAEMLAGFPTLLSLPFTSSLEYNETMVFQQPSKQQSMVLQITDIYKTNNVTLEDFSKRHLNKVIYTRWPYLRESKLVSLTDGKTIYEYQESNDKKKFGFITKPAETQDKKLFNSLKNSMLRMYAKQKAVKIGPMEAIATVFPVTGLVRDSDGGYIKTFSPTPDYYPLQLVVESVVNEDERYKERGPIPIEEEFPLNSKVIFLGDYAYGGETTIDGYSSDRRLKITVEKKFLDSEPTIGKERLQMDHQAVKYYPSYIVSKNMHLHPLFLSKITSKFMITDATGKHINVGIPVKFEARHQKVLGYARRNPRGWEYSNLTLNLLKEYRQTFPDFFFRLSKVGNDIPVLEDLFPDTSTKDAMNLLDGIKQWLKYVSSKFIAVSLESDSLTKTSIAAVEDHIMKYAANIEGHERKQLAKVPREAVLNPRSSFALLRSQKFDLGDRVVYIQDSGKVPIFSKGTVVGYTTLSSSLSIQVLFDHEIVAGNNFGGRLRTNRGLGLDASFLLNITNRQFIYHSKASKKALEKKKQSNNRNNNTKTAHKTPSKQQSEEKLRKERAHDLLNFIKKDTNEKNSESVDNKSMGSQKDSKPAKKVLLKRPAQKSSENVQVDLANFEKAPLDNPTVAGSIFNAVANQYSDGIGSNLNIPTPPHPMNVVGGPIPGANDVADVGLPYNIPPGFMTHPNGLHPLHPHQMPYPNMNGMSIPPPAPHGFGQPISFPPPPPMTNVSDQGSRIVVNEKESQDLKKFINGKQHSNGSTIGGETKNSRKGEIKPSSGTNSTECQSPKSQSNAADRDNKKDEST

B1: Pat1 (natural protein, S. cerevisiae (endogenous in yeast), UniProt P25644 1-796, looked up)
chain: MSFFGLENSGNARDGPLDFEESYKGYGEHELEENDYLNDETFGDNVQVGTDFDFGNPHSSGSSGNAIGGNGVGATARSYVAATAEGISGPRTDGTAAAGPLDLKPMESLWSTAPPPAMAPSPQSTMAPAPAPQQMAPLQPILSMQDLERQQRQMQQQFMNFHAMGHPQGLPQGPPQQQFPMQPASGQPGPSQFAPPPPPPGVNVNMNQMPMGPVQVPVQASPSPIGMSNTPSPGPVVGATKMPLQSGRRSKRDLSPEEQRRLQIRHAKVEKILKYSGLMTPRDKDFITRYQLSQIVTEDPYNEDFYFQVYKIIQRGGITSESNKGLIARAYLEHSGHRLGGRYKRTDIALQRMQSQVEKAVTVAKERPSKLKDQQAAAGNSSQDNKQANTVLGKISSTLNSKNPRRQLQIPRQQPSDPDALKDVTDSLTNVDLASSGSSSTGSSAAAVASKQRRRSSYAFNNGNGATNLNKSGGKKFILELIETVYEEILDLEANLRNGQQTDSTAMWEALHIDDSSYDVNPFISMLSFDKGIKIMPRIFNFLDKQQKLKILQKIFNELSHLQIIILSSYKTTPKPTLTQLKKVDLFQMIILKIIVSFLSNNSNFIEIMGLLLQLIRNNNVSFLTTSKIGLNLITILISRAALIKQDSSRSNILSSPEISTWNEIYDKLFTSLESKIQLIFPPREYNDHIMRLQNDKFMDEAYIWQFLASLALSGKLNHQRIIIDEVRDEIFATINEAETLQKKEKELSVLPQRSQELDTELKSIIYNKEKLYQDLNLFLNVMGLVYRDGEISELK
notes: mRNA decay factor Pat1 of S. cerevisiae, detected with anti-Pat1 antibodies; source: endogenous, yeast extract
B2: Ccr4 (protein, UniProt P31384 1-837)
chain: MNDPSLLGYPNVGPQQQQQQQQQQHAGLLGKGTPNALQQQLHMNQLTGIPPPGLMNNSDVHTSSNNNSRQLLDQLANGNANMLNMNMDNNNNNNNNNNNNNNNGGGSGVMMNASTAAVNSIGMVPTVGTPVNINVNASNPLLHPHLDDPSLLNNPIWKLQLHLAAVSAQSLGQPNIYARQNAMKKYLATQQAQQAQQQAQQQAQQQVPGPFGPGPQAAPPALQPTDFQQSHIAEASKSLVDCTKQALMEMADTLTDSKTAKKQQPTGDSTPSGTATNSAVSTPLTPKIELFANGKDEANQALLQHKKLSQYSIDEDDDIENRMVMPKDSKYDDQLWHALDLSNLQIFNISANIFKYDFLTRLYLNGNSLTELPAEIKNLSNLRVLDLSHNRLTSLPAELGSCFQLKYFYFFDNMVTTLPWEFGNLCNLQFLGVEGNPLEKQFLKILTEKSVTGLIFYLRDNRPEIPLPHERRFIEINTDGEPQREYDSLQQSTEHLATDLAKRTFTVLSYNTLCQHYATPKMYRYTPSWALSWDYRRNKLKEQILSYDSDLLCLQEVESKTFEEYWVPLLDKHGYTGIFHAKARAKTMHSKDSKKVDGCCIFFKRDQFKLITKDAMDFSGAWMKHKKFQRTEDYLNRAMNKDNVALFLKLQHIPSGDTIWAVTTHLHWDPKFNDVKTFQVGVLLDHLETLLKEETSHNFRQDIKKFPVLICGDFNSYINSAVYELINTGRVQIHQEGNGRDFGYMSEKNFSHNLALKSSYNCIGELPFTNFTPSFTDVIDYIWFSTHALRVRGLLGEVDPEYVSKFIGFPNDKFPSDHIPLLARFEFMKTNTGSKKV

The molecules below were run against T1, TAP-tagged Kap120 (S. cerevisiae, UniProt Q02932 1-1032) (assay: co-IP; TAP-tagged Kap120 affinity purified with IgG-sepharose from extract of optimally proliferating yeast (WT or Xrn1^ΔNLS1/2 cells); co-IPed proteins by Western blotting; signals normalized to Kap120).
T1 construct: karyopherin Kap120 of S. cerevisiae, TAP-tagged, expressed in yeast; also called Kap120-TAP; source: yeast, in extract, captured on IgG-sepharose
T1 sequence (looked up): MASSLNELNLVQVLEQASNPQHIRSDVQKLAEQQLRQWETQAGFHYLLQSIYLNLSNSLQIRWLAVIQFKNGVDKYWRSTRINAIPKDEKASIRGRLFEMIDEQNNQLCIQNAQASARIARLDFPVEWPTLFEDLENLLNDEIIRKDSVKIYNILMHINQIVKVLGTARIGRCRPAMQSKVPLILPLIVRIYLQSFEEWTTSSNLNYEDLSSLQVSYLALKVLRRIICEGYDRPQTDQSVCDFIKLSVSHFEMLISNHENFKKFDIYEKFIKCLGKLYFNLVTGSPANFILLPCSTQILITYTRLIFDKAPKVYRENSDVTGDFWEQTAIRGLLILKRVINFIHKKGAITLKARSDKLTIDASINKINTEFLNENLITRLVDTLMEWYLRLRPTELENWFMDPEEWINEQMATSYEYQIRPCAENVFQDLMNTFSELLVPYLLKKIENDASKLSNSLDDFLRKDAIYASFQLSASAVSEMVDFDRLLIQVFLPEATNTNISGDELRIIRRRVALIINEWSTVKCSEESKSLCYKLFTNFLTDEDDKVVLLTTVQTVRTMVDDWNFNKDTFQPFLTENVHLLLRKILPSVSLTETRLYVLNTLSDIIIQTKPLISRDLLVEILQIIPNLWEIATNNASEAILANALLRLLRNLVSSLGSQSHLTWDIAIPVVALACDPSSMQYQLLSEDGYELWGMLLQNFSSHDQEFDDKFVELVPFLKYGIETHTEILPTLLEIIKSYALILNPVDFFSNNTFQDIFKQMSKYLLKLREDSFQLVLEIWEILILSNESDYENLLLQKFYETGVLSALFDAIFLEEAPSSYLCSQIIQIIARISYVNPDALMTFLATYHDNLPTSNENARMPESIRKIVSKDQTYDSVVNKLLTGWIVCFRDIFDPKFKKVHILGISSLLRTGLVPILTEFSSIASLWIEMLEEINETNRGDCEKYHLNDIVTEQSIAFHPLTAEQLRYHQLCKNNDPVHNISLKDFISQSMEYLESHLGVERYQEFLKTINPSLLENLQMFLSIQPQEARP

Q: “Xrn1 (wild type) in cells expressing Kap120-TAP (from UniProt P22147 1-1528) (enzyme)” was tested. Which binding did it give?
A: binds

Q: With B1 as the molecule, how does the binding read?
A: binds

Q: How did the binding turn out when B2 was run?
A: no binding
